The values that follow come from patent publication US7268108B2 (Institut European de Biologie Cellulaire, priority 2002, dated 2007).

This data set is described as follows: general procedure: Fmoc solid-phase peptide synthesis; Rink amide-type resin, 0.3-0.6 mmol/g. Conditions: whole synthesis, HPLC.

[ ]: non-standard residue; d: D form. The star is where a group is joined. d(hPhe) = N[C@H](CCc1ccccc1)C(=O)O; d2Thi = N[C@H](Cc1cccs1)C(=O)O; Tos = Cc1ccc(S(=O)(=O)*)cc1; Nle = CCCC[C@H](N)C(=O)O

Turning to BzlSO2-Nle-Ala-His-DPhe-Arg-Trp-NH2, the “purity (crude or final not stated)” value is listed as 96%.

As for Ac-MeNle-Ala-His-DHomoPhe-Arg-Trp-NH2, the “purity (crude or final not stated)” value stood at 75%.

In the case of BzlSO2-Nle-Ala-His-DPhe-Lys-Trp-NH2, the “purity (crude or final not stated)” value is on record as 84%.

“PyrProp-Nle-Ala-His-DpNO2Phe-Lys-Trp-NH2”: the “purity (crude or final not stated)” value was 84%.

In the case of Ac-[Nle]AH[dF]KW-NH2, the “purity (crude or final not stated)” value is reported as 88%.

Take Ac-Nle-Ala-His-L2, Nap-Lys-Trp-NH2: the “purity (crude or final not stated)” value was 74%.

On to Ac-Nle-Ala-His-Dphe-Arg-Trp-NH2, for which the “purity (crude or final not stated)” value came to 81%.

Turning to BzlSO2-Nle-Ala-His-DThi-Lys-Trp-NH2, the “purity (crude or final not stated)” value worked out at 94%.

Turning to Ac-Nle-Ala-His-Dthi-Arg-Trp-NH2, the “purity (crude or final not stated)” value was 86%.

Turning to “PyrProp-Nle-Ala-His-DpNO2Phe-Arg-Trp-NH2”, the “purity (crude or final not stated)” value is given as 86%.

With Ac-[Nle]AH[d2Thi]KW-NH2, the “purity (crude or final not stated)” value was determined as 86%.

Turning to Tos-[Nle]AH[dF]RW-NH2, the “purity (crude or final not stated)” value amounted to 91%.

On to Ac-[Nle]AH[d(hPhe)]RW-NH2, for which the “purity (crude or final not stated)” value worked out at 88%.

Turning to BzlSO2-Nle-Ala-His-DpNO2Phe-Lys-Trp-NH2, the “purity (crude or final not stated)” value was determined as 74%.
